# Results: PubChem BioAssay
# Inconclusive results, whose numbers are uncertain, are shown with a selection of clear calls. Where the call is inconclusive, the potency comes from a doubtful curve fit. Calls of active or inactive are those of the source. Unless noted, cut-off not given; nearly all actives show AC50 up to about 30 µM.
# Test: growth inhibition of DIPG glioma cells, dose response, cell-based, JHH-DIPG-1, MIPE4.0, CellTiter-Glo, qHTS (AID 1347062; cut-off not given, nearly all actives have AC50 up to about 27 µM;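 on AC50: cells exposed to compound for two days before readout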)
# Details: JHH-DIPG-1 viability, CellTiter-Glo ATP luminescence
SMILES,AC50,outcome
C[C@@]12OC(=O)[C@]1([C@@H](O)[C@@H]1C=CCCC1)NC(=O)[C@@H]2CCCl,active: 0.0418 µM,–
C[C@](O)(COc1ccc(C#N)cc1)C(=O)Nc1ccc(C#N)c(C(F)(F)F)c1,–,inactive
O=S(=O)(CC1CS1)c1ccc(Oc2ccccc2)cc1 (configuration not stated),inconclusive: 33.2 µM [cytotoxic],–
C[C@@H]1O[C@@H](O[C@H]2C[C@@H](O)[C@]3(CO)[C@H]4[C@H](O)C[C@]5(C)[C@@H](C6=CC(=O)OC6)CC[C@]5(O)[C@@H]4CC[C@]3(O)C2)[C@H](O)[C@H](O)[C@H]1O,active: 0.00662 µM,–

# Test: growth inhibition of DIPG glioma cells, dose response, cell-based, SU-DIPG-IV, MIPE4.0, CellTiter-Glo, qHTS (AID 1347063);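 further: compound exposure lasted 48 hours before the viability readout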
# Details: SU-DIPG-IV viability, CellTiter-Glo ATP luminescence
SMILES,AC50,outcome
COC1=C[C@@H]2[C@@H]3Cc4ccc(OC)c(O)c4[C@]2(CCN3C)CC1=O,active: 0.935 µM,–
COc1ccc2c(c[n+](C)c3c4cc5c(cc4ccc23)OCO5)c1OC,active: 5.26 µM,–
C[C@]12CC[C@H]3[C@@H](CCC4=CC(=O)CC[C@@]43C)[C@@H]1CC[C@@H]2OC(=O)CCC1CCCC1,–,inactive
CC(C)(O)C(=O)Nc1ccc([N+](=O)[O-])c(C(F)(F)F)c1,inconclusive: 0.0372 µM [cytotoxic],–
CC(NC(C)(C)C)C(=O)c1cccc(Cl)c1 (configuration not stated),–,inactive
CCNC(=O)CC1N=C(c2ccc(Cl)cc2)c2cc(OC)ccc2-n2c(C)nnc21 (configuration not stated),active: 16.6 µM,–
COC[C@H]1OC(=O)c2coc3c2[C@@]1(C)C1=C(C3=O)C2CCC(=O)[C@@]2(C)C[C@H]1OC(C)=O (some centres not stated),active: 3.72 µM,–
CCOC(=O)Nc1ccc(NCc2ccc(F)cc2)cc1N,inconclusive: 6.62 µM [cytotoxic],–

# Random excerpt: two records from the list.
SMILES,AC50,outcome
CCOC(=O)Nc1ccc(NCc2ccc(F)cc2)cc1N,inconclusive: 6.62 µM [cytotoxic],–
COC1=C[C@@H]2[C@@H]3Cc4ccc(OC)c(O)c4[C@]2(CCN3C)CC1=O,active: 0.935 µM,–
